Data from paper PMC3873263.
No constants are given. Whether binding was seen depends on the method and setting. Binding seen in cells or lysates may run through a third protein. Some results given as binding are weak or reduced against the parent protein; the word gives no strength.

Chains of the proteins cited; added tags and fusions are not shown. Residues count along the entry.
UniProt Q9NQS3, residues 58-549: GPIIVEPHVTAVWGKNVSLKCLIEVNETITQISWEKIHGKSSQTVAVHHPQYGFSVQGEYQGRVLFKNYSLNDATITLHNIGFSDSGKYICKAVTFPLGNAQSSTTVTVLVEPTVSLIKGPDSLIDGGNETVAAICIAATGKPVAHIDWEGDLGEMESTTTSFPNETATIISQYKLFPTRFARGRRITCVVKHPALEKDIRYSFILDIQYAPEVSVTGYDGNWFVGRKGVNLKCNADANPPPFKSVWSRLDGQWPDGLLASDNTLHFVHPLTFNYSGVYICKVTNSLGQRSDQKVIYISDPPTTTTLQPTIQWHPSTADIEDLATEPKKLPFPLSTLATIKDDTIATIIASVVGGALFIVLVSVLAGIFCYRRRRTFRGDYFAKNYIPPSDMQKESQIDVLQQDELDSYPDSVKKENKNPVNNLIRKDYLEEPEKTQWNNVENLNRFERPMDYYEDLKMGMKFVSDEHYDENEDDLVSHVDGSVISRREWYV

Target: Nectin-3 (human (endogenous in the paper's human cell lines; line not stated)) (UniProt Q9NQS3)
Test: co-IP; cell lysate (cell line not stated) precipitated with anti-Nectin-3 antibody (A, C-19, C-terminus) or (B, K-20, internal region), 1:100, protein A/G agarose overnight; blots probed for the partners; lysis in HCMF buffer with 0.5% SDS, 0.5% Triton X-100, 2 mM CaCl2

binding | Binder
binds | ZO-2 (protein, UniProt Q9UDY2 1-1190) MPVRGDRGFPPRRELSGWLRAPGMEELIWEQYTVTLQKDSKRGFGIAVSGGRDNPHFENGETSIVISDVLPGGPADGLLQENDRVVMVNGTPMEDVLHSFAVQQLRKSGKVAAIVVKRPRKVQVAALQASPPLDQDDRAFEVMDEFDGRSFRSGYSERSRLNSHGGRSRSWEDSPERGRPHERARSRERDLSRDRSRGRSLERGLDQDHARTRDRSRGRSLERGLDHDFGPSRDRDRDRSRGRSIDQDYERAYHRAYDPDYERAYSPEYRRGARHDARSRGPRSRSREHPHSRSPSPEPRGRPGPIGVLLMKSRANEEYGLRLGSQIFVKEMTRTGLATKDGNLHEGDIILKINGTVTENMSLTDARKLIEKSRGKLQLVVLRDSQQTLINIPSLNDSDSEIEDISEIESNRSFSPEERRHQYSDYDYHSSSEKLKERPSSREDTPSRLSRMGATPTPFKSTGDIAGTVVPETNKEPRYQEDPPAPQPKAAPRTFLRPSPEDEAIYGPNTKMVRFKKGDSVGLRLAGGNDVGIFVAGIQEGTSAEQEGLQEGDQILKVNTQDFRGLVREDAVLYLLEIPKGEMVTILAQSRADVYRDILACGRGDSFFIRSHFECEKETPQSLAFTRGEVFRVVDTLYDGKLGNWLAVRIGNELEKGLIPNKSRAEQMASVQNAQRDNAGDRADFWRMRGQRSGVKKNLRKSREDLTAVVSVSTKFPAYERVLLREAGFKRPVVLFGPIADIAMEKLANELPDWFQTAKTEPKDAGSEKSTGVVRLNTVRQIIEQDKHALLDVTPKAVDLLNYTQWFPIVIFFNPDSRQGVKTMRQRLNPTSNKSSRKLFDQANKLKKTCAHLFTATINLNSANDSWFGSLKDTIQHQQGEAVWVSEGKMEGMDDDPEDRMSYLTAMGADYLSCDSRLISDFEDTDGEGGAYTDNELDEPAEEPLVSSITRSSEPVQHEESIRKPSPEPRAQMRRAASSDQLRDNSPPPAFKPEPPKAKTQNKEESYDFSKSYEYKSNPSAVAGNETPGASTKGYPPPVAAKPTFGRSILKPSTPIPPQEGEEVGESSEEQDNAPKSVLGKVKIFEKMDHKARLQRMQELQEAQNARIEIAQKHPDIYAVPIKTHKPDPGTPQHTSSRPPEPQKAPSRPYQDTRGSYGSDAEEEEYRQQLSEHSKRGYYGQSARYRDTEL
binds | γ-catenin (protein, UniProt P14923 1-745) MEVMNLMEQPIKVTEWQQTYTYDSGIHSGANTCVPSVSSKGIMEEDEACGRQYTLKKTTTYTQGVPPSQGDLEYQMSTTARAKRVREAMCPGVSGEDSSLLLATQVEGQATNLQRLAEPSQLLKSAIVHLINYQDDAELATRALPELTKLLNDEDPVVVTKAAMIVNQLSKKEASRRALMGSPQLVAAVVRTMQNTSDLDTARCTTSILHNLSHHREGLLAIFKSGGIPALVRMLSSPVESVLFYAITTLHNLLLYQEGAKMAVRLADGLQKMVPLLNKNNPKFLAITTDCLQLLAYGNQESKLIILANGGPQALVQIMRNYSYEKLLWTTSRVLKVLSVCPSNKPAIVEAGGMQALGKHLTSNSPRLVQNCLWTLRNLSDVATKQEGLESVLKILVNQLSVDDVNVLTCATGTLSNLTCNNSKNKTLVTQNSGVEALIHAILRAGDKDDITEPAVCALRHLTSRHPEAEMAQNSVRLNYGIPAIVKLLNQPNQWPLVKATIGLIRNLALCPANHAPLQEAAVIPRLVQLLVKAHQDAQRHVAAGTQQPYTDGVRMEEIVEGCTGALHILARDPMNRMEIFRLNTIPLFVQLLYSSVENIQRVAAGVLCELAQDKEAADAIDAEGASAPLMELLHSRNEGTATYAAAVLFRISEDKNPDYRKRVSVELTNSLFKHDPAAWEAAQSMIPINEPYGDDMDATYRPMYSSDVPLDPLEMHMDMDGDYPIDTYSDGLRPPYPTADHMLA
